Measured values as given in paper PMC6336269.
These are yes or no findings as the source states them, for the method shown. In cells and extracts the contact can be indirect. Here binding means that the protein was enriched with, or labelled near, the bait; the list need not be complete. Tags and fused reporters may be left off the sequences shown.

Biological target: T1, TAP tagged Rio2 (S. cerevisiae), P40160
T1 chain: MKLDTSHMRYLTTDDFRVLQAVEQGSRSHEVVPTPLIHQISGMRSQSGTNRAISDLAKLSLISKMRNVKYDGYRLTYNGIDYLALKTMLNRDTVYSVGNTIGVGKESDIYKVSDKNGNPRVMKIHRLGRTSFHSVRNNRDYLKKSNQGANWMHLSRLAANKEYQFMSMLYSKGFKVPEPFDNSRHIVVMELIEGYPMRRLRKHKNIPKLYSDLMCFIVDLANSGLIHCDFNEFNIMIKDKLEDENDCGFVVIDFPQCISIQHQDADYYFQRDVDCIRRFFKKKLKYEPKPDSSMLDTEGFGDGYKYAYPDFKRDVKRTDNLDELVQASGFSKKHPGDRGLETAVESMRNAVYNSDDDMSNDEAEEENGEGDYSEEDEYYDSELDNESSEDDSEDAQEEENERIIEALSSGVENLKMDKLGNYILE
Assay: affinity purification with mass spectrometry; TAP tagged Rio2 with associated SSU precursors purified from yeast cellular extracts on rabbit immunoglobulin G coupled to magnetic beads; semi-quantitative mass spectrometry with iTRAQ 4plex; wild type cells and cells shifted to glucose for two or four hours to deplete rpS0, rpS2, rpS21, rpS3, rpS20 or rpS29
Conditions: remark: other sources report otherwise

binding: binds
B1: Rrp12, Q12754 1-1228 (protein)
chain: MDQDKVAFLLELEDKLAKIRSQVNSKLENQKHIAIILTAVEENIAGQATNDVSKNIVNYIISFMSLLDQAVDPSTHEIKDIQLASSSTYLLDLIFHYSPKVLLRSKFSEILTKIAPCITAEKANAPLIRAAIGCLESLLIAQDAQAWNNTYDLNVTPKRGLQGILELSLDVRPKVRKRALDAVHAVLLNPPVAPTAEHVAAVFVADFCDKQLAGILNDLSNLSNKQLKAQKTKEDINASVMRSLRLITSVVSTGQWPSSQIEPLCDVLLGVTKSSEQYLVSASFECFESMFKTMAETTISSGLAENKYLRVLDTIFALKPSNVDTLLTKSWIAVVIKGMSTYATHQPLKALRKIPGVFHIMCTYLASETPEVYQAASQCLISILSESVKDDLLLYTPSVDEKVFKNVDEIISQIAKTFIDFLSIRYSHCSREILKILVAAFNKFRYRSNPHFLKSLKIVDTWRVNEEQFMDLRNEIELVIGASISAMGPEMILAEAPLNLDNPSSERPGRAWLLPLIRDYTKNANLATFQNELAPYIKSFQSKFDKVPEESIQLRVFQTIVDQIWSTLPRFCELPMDLRESFTDEFASELSSLLYSEVELRTTICHALKVLAESNVSYAEESSSHNVLLLQRFPISEAQKNIEYLSTKSTNLLAVLFNVYTQTTPNARSYILETIDQYLKITSKEDLEKTFNNVCGLLKNSMNEESSGNVNKEKKKPQLTATLLDLIICMITYLPVSSYSALFSMFSLTVNSADALIQKRAYRIITKLSELKSGSTAVAQFISDIENVMVDSASSVQTSAKAARLTAIKTIVELLPLDHLDFIVRTVAEVILSTKDVNEKSRETAFDTLICMGRKMNEPNGIIKLFQIPGYDPTTPDQSSSISEFFKIISAGLIGESQHMVSSSITGYACLVFEFKNELDSGILMDIYDTIELYLTSNSREIVKSAIGFTKVCVLGLPEELMRPKVPELLLKLLRWSHEHTGHFKAKVKHIIERLIRRFGYDYIEANFPEEDRRLLTNIRKMRNRNKRKDEEVTTGVSDVAATKGSRFMSAFDEAVYGSDEENDNGSDQEENVAGGKMKNGAKQFIVESGDNPLDLLDSQTLAHISSTRPKKFNKNQNRARFNDDAFNFDSEGKLVVKGQPKPSTNVDDPLSAVTSGINAYLEAVKSGPVRGQRNKLKFRKNGKDSDEFGDDDDGEKDSRLMRGRVNQGNKIGKHNKKGPKFKSRKKL
